No constants are given. Whether binding was seen depends on the method and setting. In cells and extracts the contact can be indirect. Some binding calls cover weakened binding; strength is not graded here.
Biological target: T1, Nucleolar protein 58 (NOP58), endogenous (mouse (endogenous in liver)) (UniProt Q6DFW4)
T1 sequence: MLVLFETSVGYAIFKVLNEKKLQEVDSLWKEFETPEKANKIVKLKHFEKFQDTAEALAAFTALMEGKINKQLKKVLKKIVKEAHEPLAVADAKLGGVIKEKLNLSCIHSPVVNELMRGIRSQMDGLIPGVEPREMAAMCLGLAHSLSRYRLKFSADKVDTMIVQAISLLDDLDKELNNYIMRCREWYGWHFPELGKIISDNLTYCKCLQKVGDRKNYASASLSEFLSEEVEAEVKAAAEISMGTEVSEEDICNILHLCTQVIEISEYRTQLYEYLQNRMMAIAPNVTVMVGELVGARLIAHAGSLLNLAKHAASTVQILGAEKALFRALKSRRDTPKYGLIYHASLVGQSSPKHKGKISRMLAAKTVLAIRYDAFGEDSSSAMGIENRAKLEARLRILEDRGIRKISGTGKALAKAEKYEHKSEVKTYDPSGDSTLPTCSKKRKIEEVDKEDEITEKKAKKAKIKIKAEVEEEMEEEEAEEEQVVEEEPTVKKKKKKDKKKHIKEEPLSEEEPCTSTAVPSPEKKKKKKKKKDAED
Assay: co-IP; co-IP of endogenous NOP58 in nucleoli fractionated from livers of WT and Bmal1-KO mice; western blot

- binding: binds
B1: Fibrillarin (FBL), endogenous (protein, UniProt P35550 1-327)
chain: MKPGFSPRGGGFGGRGGFGDRGGRGGGRGGRGGFGGGRGGFGGGGRGRGGGGGGFRGRGGGGGRGGGFQSGGNRGRGGGRGGKRGNQSGKNVMVEPHRHEGVFICRGKEDALVTKNLVPGESVYGEKRVSISEGDDKIEYRAWNPFRSKLAAAILGGVDQIHIKPGAKVLYLGAASGTTVSHVSDIVGPDGLVYAVEFSHRSGRDLINLAKKRTNIIPVIEDARHPHKYRMLIAMVDVIFADVAQPDQTRIVALNAHTFLRNGGHFVISIKANCIDSTASAEAVFASEVKKMQQENMKPQEQLTLEPYERDHAVVVGVYRPPPKVKN
